## Primary screen of a compound library

Amino acid sequences for entries named in this document (tags omitted). Residues count along the entry.
UniProt I6X8D2, whole entry: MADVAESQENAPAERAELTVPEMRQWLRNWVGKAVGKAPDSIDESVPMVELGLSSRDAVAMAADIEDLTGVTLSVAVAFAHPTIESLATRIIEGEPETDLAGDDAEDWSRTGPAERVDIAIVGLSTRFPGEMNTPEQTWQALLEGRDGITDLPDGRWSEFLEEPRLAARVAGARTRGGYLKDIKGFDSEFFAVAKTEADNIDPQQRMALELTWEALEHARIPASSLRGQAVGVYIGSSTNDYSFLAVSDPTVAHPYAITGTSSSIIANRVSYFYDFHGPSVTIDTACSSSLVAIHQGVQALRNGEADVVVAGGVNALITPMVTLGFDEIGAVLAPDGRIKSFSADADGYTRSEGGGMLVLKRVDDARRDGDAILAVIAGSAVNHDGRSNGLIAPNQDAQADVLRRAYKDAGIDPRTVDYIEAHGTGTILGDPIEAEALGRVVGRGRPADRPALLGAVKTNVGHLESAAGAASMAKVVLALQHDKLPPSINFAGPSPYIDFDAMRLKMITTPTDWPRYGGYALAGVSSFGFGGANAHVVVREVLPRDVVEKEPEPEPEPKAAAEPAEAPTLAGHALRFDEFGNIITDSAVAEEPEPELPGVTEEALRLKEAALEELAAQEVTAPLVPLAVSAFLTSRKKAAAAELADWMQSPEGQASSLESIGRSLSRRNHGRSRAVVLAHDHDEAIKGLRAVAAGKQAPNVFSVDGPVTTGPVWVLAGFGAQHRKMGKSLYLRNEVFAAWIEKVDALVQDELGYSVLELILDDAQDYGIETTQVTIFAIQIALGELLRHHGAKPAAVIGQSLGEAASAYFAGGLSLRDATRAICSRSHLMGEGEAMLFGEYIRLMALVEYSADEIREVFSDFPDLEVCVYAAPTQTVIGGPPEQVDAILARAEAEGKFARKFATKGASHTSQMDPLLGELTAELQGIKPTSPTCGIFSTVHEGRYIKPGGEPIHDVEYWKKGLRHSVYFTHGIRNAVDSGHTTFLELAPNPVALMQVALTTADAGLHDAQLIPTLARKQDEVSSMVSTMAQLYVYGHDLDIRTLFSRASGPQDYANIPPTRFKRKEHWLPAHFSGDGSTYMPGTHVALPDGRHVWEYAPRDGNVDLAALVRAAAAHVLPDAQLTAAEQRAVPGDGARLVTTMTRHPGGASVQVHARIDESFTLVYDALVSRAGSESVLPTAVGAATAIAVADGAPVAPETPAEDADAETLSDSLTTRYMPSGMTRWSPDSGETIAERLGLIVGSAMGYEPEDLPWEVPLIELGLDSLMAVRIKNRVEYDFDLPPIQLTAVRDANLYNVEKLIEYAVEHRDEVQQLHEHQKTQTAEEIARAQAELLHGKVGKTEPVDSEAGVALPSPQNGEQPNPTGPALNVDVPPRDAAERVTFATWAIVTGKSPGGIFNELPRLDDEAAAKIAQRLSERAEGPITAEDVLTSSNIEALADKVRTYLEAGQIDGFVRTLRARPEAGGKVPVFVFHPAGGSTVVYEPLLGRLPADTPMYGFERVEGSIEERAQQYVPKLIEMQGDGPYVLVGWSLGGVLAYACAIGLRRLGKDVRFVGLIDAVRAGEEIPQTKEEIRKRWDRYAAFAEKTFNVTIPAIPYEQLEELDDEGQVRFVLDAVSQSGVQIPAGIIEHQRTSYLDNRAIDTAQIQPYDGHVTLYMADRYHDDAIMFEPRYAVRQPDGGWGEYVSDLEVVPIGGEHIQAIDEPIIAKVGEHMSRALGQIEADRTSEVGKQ
UniProt Q4DA54, 1-478: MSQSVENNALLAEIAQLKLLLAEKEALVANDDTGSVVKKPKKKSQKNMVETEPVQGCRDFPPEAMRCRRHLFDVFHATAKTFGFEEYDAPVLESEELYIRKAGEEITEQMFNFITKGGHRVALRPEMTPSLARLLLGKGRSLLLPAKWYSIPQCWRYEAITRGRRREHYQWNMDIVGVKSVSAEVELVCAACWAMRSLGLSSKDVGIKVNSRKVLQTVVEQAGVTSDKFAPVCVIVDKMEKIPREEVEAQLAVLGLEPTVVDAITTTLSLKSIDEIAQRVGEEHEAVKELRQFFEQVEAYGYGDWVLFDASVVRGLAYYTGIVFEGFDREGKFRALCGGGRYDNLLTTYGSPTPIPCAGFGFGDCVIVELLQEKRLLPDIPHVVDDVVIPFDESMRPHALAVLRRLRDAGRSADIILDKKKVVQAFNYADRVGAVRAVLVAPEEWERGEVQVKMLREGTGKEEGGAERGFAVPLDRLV
UniProt P9WFT3, whole entry: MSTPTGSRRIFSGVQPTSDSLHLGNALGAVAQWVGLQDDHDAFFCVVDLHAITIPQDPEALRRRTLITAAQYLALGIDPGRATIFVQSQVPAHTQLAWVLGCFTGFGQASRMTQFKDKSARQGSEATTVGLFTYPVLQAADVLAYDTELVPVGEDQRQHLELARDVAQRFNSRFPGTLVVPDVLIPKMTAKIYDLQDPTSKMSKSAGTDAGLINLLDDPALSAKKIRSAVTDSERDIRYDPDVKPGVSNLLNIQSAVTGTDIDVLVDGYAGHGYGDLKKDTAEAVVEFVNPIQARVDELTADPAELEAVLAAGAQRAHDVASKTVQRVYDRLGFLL
UniProt P9WPC5, whole entry: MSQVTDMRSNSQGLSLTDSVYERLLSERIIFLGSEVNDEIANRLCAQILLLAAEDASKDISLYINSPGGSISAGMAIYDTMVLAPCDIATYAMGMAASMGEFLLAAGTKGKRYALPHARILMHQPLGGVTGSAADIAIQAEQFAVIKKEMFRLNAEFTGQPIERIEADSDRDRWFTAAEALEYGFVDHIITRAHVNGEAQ
UniProt P9WPC3, whole entry partner: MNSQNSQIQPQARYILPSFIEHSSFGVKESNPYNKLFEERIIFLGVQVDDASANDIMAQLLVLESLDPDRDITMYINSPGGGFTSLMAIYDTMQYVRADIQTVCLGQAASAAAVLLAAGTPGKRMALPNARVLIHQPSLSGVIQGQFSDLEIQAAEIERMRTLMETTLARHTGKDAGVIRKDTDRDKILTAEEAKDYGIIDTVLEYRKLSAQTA

From ChEMBL document CHEMBL3988442, “University of Dundee, Small-Polar-MMV Screening Library” (2021).

Pks13 thioesterase: 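Polyketide synthase Pks13, Mycobacterium tuberculosis (UniProt I6X8D2). Enzyme assay of the thioesterase domain of polyketide synthase 13; the read-out is not stated. Concentration: 30 µM. The record gives no direction; the compounds picked for IC50 retests had high values, so higher reads as stronger inhibition. Size under these conditions: about 67,000 compounds, about 300 of them at 50% or above in at least one test.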
TcHisRS: 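Histidine-tRNA ligase, Trypanosoma cruzi CL Brener (UniProt Q4DA54). Enzyme assay of histidyl-tRNA synthetase; the read-out is not stated. Compounds at 30 µM. Direction is inferred from retests: higher values go with stronger inhibition. Size under these conditions: about 69,000 compounds, about 31 of them at 50% or above in at least one test.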
MtTrpRS: 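Tryptophan-tRNA ligase, Mycobacterium tuberculosis (UniProt P9WFT3). Enzyme assay of tryptophanyl-tRNA synthetase; the read-out is not stated. Tested at 10 µM. Higher most likely means stronger inhibition; the record gives no direction and few retests gave an IC50. Of about 65,000 compounds tested this way, about 64 (0.098%) reached 50% or more in at least one test.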
ClpP1P2: 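Protease assay of ClpP1P2, read by the AMC dye that it sets free. Target: ClpP1P2, Mycobacterium tuberculosis (UniProt P9WPC5 and UniProt P9WPC3). Tested at 50 µM. Direction is inferred from only a few compounds that gave an IC50; most scored high, so higher reads as stronger inhibition. Most other retested compounds had strongly negative values. Size under these conditions: about 69,000 compounds, about 10 of them at 50% or above in at least one test.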

Results are given as percent effect.
How 0% and 100% were set is not recorded. Most values in the screen are low, and negative values occur.
The compounds are a random part of those screened.
A dash means the value is not listed here; it may have been measured.

| compound | Pks13 thioesterase | TcHisRS | MtTrpRS | ClpP1P2 |
|---|---|---|---|---|
| `CN1CCC(N[C@@H]2CO[C@H](CNC(=O)C3CCCC3)[C@H]2O)CC1` | -3.617 | 5.435 | -2.2 | -14.05 |
| `O=C(C1CCCS1)N1CCOc2cccc(F)c21` (stereo not given) | 0.9991 | 3.158 | 1.433 | 0.05525 |
| `OC(CNCCn1cccn1)c1ccc(C(F)(F)F)cc1` (stereo not given) | -9.279 | 5.65 | -3.754 | -20.32 |
| `CC(C)(O)CN1CCN(C(=O)c2cccnc2O)CC1` | 13.4 | 3.053 | 1.114 | 4.042 |
| `O=c1ccc2c([nH]1)CCC(NCc1ccc3c(c1)OCO3)C2` (stereo not given) | -16.78 | -0.9346 | -9.165 | -12.28 |
| `Cc1cccc(SC2CCN(C(=O)CCCS(N)(=O)=O)CC2)c1` | 2.513 | 1.98 | -0.8039 | -1.753 |
| `COc1ccc(-n2ncc(C(C)NC3Cc4ccccc4C3)c2C)cc1` (stereo not given) | -2.165 | -2.703 | 8.476 | -9.203 |
| `Fc1ccc(C2CN(CCc3ccncc3)CCO2)cc1` (stereo not given) | -7.63 | 4.95 | 1.877 | 9.973 |
| `Cc1c(C(=O)NCC(C)(C)S(C)(=O)=O)cccc1-c1ccccn1` | -5.978 | 8.458 | -2.754 | -6.106 |
| `Cc1ccc(Br)c(S(=O)(=O)NCc2cnn(C)c2)c1` | -12.47 | 9.827 | 2.855 | -4.238 |
| `O=C(Nc1cccc(N2CCCC2)c1)C1CCCN1c1nccs1` (stereo not given) | -6.088 | 1.527 | 0.07424 | 4.504 |
| `CC(C)CS(=O)(=O)N1CCC2(CN(c3cccc(F)c3)C(=O)CN2C)C1` (stereo not given) | -1.992 | 5.911 | 9.959 | 13.61 |
| `Cc1cc(C)c(Cn2cncn2)cc1CN1CCC(CN)C1` (stereo not given) | -50.41 | -1.064 | 1.125 | -4.404 |
| `CN(Cc1cc(C2CC2)on1)C(=O)C(c1cccnc1)N1CCCC1` (stereo not given) | -5.697 | 1.149 | -0.4472 | -9.388 |
| `CCOc1ccc(CN2CCOCC2c2[nH]ncc2C)cc1CO` (stereo not given) | -7.469 | 4.52 | -4.765 | -11.48 |
| `CO[C@@H]1CN(c2ccccc2)S(=O)(=O)[C@@]12CCN(C)C2` | 10.31 | 1.124 | - | -2.05 |
| `O=C([C@H]1CC[C@@H]2[C@@H](CCN2c2ncccn2)O1)N1CCCCO1` | 4.553 | 11.11 | - | 3.624 |
| `CN1CCN(c2ccccc2NC(=O)c2ccco2)CC1` | -37.46 | -5.603 | 3.763 | -13.38 |
| `CCOc1ncccc1CNC(=O)NC1CCOc2ccccc21` (stereo not given) | -9.916 | 4.046 | -4.622 | -38.48 |
| `O=C(NC1CCS(=O)(=O)c2ccccc21)c1sccc1C1CC1` (stereo not given) | -21.9 | 3.797 | 4.452 | -12.56 |
| `COc1ccc(C(CN2CCN(C)CC2)Nc2ncccn2)cc1` (stereo not given) | -3.738 | -0.4926 | -0.2742 | -10.44 |
| `CC(C)(O)CNC(=O)c1sccc1Br` | -49.26 | 12.99 | 5.47 | 3.198 |
| `CN(C)CCCNCCC(c1ccccc1)C1CCOC(C)(C)C1` (stereo not given) | -16.8 | 12.5 | -2.287 | -5.131 |
| `CCc1ccccc1NC(=O)c1cnn(C)c1C` | -10.13 | 6.186 | 0.4078 | 0.3801 |
| `Cc1cccc(-c2nc(CN3CCCC3Cn3cc(C)cn3)no2)c1` (stereo not given) | -3.401 | 1.127 | 15.72 | 14.85 |
| `Cc1[nH]ccc1C(=O)Nc1cccc(CN2CCC(CO)CC2)c1` | -29.34 | 2.174 | -0.9534 | 9.714 |
| `CC(C)CN1CCC(c2nc3ccc(NC(C)C)cn3n2)CC1` | 14.44 | 2.439 | 1.245 | -18.07 |
| `O=C(NCCCn1nc2ccccn2c1=O)NCC(C1CC1)C1CC1` | -5.17 | 6.098 | 0.8158 | -10.36 |
| `Cc1nnc(CN(C)S(=O)(=O)c2ccc(Br)cc2Cl)n1C` | -15.87 | 0.5128 | 1.321 | 2.391 |
| `CCn1cc2c(n1)CN(Cc1ccc(C)o1)CC2COCC1CC1` (stereo not given) | - | 9.852 | -4.033 | -10.17 |
| `CC(Cn1ccnc1)NC(=O)NCCN1CCCCCC1=O` (stereo not given) | -66.51 | 8.287 | 1.738 | -4.796 |
| `c1cnc(-c2nc(CN3CCCC(Cn4cncn4)C3)cs2)nc1` (stereo not given) | 12.18 | 3.759 | -1.174 | 11.15 |
| `CS(=O)(=O)c1ccc(NCC2CCCO2)c(S(C)(=O)=O)c1` (stereo not given) | 5.68 | 12.02 | 1.485 | 6.954 |

Some entries from above, unchanged:

Result for CCOc1ncccc1CNC(=O)NC1CCOc2ccccc21 (stereo not given) was Pks13 thioesterase: -9.916%; TcHisRS: 4.046%; MtTrpRS: -4.622%; ClpP1P2: -38.48%.
Result for O=C(Nc1cccc(N2CCCC2)c1)C1CCCN1c1nccs1 (stereo not given) was Pks13 thioesterase: -6.088%; TcHisRS: 1.527%; MtTrpRS: 0.07424%; ClpP1P2: 4.504%.